The supplement of paper PMC12823440, “Inhibitors supercharge kinase turnover through native proteolytic circuits” (Nature, 2025)
The list shows a part of the results. The calls rarely recur for the same compound in another form.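 In K562 cells expressing nanoluciferase-fused kinases, luminescence was recorded at 4 h intervals between 2 and 18 h, normalized as percent of control with DMSO at 100% and a positive control at 0%. A significant (2 sigma) signal drop marks a time point as decreased. The authors' rule for a hit is not shown and takes in more than the number of time points.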

Sequences of proteins named here, by UniProt entry; tags and fusion partners are left off. A change or cut given only in a name is not applied to a line headed by its entry.
UniProt P48730: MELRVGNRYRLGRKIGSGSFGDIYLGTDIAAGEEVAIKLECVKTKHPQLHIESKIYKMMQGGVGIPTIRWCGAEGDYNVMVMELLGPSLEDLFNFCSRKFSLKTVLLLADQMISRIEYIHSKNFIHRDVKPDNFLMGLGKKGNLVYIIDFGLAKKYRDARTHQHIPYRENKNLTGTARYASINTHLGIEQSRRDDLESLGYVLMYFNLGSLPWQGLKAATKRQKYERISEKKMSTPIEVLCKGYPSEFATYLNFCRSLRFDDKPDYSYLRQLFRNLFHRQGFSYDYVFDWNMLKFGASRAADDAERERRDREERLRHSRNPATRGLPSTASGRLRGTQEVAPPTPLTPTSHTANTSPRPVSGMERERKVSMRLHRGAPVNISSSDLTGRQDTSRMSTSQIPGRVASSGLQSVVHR
UniProt Q9Y463, whole entry, looked up: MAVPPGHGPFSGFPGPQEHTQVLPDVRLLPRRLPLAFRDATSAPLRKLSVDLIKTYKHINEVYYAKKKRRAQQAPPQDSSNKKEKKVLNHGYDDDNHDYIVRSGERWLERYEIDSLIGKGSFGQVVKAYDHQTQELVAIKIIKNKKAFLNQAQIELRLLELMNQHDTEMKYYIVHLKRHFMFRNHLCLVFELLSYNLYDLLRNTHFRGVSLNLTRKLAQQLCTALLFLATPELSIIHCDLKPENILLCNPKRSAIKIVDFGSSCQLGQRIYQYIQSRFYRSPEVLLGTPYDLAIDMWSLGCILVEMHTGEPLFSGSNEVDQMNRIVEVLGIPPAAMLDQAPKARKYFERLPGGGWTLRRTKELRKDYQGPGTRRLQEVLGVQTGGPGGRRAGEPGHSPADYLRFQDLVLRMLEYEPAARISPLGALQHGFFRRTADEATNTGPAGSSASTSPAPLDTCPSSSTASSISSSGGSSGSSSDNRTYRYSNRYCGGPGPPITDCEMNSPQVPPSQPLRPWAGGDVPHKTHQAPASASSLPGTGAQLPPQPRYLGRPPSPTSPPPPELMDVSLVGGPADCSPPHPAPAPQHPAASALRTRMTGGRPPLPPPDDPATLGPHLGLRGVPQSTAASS
UniProt P21860, whole entry: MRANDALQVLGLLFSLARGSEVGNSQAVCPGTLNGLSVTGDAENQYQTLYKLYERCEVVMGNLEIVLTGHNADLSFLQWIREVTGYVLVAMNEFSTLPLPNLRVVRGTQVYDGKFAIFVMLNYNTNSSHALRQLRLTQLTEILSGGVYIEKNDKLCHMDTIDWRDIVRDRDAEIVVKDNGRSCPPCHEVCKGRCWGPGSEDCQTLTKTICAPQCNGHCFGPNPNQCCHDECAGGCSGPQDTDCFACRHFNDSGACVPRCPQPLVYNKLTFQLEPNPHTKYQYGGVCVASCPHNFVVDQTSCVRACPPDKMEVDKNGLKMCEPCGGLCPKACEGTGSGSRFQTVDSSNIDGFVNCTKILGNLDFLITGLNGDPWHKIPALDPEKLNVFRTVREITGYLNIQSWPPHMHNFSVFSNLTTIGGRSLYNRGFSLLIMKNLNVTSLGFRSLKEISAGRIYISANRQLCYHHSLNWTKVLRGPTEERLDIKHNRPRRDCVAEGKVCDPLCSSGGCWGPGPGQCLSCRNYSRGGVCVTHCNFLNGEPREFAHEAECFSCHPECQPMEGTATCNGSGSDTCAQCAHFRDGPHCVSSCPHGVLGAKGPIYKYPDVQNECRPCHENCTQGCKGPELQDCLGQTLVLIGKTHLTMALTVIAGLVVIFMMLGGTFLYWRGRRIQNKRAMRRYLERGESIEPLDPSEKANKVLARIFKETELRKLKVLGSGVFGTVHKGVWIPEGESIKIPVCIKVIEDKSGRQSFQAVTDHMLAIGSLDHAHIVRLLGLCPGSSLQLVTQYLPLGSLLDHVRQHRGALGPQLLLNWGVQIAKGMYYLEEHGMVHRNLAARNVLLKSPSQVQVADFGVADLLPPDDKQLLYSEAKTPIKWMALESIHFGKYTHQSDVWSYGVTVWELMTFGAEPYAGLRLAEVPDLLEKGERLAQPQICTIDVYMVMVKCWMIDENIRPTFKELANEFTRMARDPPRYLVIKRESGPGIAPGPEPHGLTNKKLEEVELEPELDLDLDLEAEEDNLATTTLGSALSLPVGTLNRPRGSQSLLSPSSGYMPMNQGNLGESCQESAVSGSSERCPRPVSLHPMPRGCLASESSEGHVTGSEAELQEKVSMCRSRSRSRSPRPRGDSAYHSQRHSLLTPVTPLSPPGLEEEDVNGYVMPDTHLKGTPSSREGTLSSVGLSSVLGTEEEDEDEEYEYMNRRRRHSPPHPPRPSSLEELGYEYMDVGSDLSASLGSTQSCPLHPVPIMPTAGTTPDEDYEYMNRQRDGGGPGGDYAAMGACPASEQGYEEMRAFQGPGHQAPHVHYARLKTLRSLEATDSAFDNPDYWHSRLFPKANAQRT
UniProt Q15303, whole entry R711C: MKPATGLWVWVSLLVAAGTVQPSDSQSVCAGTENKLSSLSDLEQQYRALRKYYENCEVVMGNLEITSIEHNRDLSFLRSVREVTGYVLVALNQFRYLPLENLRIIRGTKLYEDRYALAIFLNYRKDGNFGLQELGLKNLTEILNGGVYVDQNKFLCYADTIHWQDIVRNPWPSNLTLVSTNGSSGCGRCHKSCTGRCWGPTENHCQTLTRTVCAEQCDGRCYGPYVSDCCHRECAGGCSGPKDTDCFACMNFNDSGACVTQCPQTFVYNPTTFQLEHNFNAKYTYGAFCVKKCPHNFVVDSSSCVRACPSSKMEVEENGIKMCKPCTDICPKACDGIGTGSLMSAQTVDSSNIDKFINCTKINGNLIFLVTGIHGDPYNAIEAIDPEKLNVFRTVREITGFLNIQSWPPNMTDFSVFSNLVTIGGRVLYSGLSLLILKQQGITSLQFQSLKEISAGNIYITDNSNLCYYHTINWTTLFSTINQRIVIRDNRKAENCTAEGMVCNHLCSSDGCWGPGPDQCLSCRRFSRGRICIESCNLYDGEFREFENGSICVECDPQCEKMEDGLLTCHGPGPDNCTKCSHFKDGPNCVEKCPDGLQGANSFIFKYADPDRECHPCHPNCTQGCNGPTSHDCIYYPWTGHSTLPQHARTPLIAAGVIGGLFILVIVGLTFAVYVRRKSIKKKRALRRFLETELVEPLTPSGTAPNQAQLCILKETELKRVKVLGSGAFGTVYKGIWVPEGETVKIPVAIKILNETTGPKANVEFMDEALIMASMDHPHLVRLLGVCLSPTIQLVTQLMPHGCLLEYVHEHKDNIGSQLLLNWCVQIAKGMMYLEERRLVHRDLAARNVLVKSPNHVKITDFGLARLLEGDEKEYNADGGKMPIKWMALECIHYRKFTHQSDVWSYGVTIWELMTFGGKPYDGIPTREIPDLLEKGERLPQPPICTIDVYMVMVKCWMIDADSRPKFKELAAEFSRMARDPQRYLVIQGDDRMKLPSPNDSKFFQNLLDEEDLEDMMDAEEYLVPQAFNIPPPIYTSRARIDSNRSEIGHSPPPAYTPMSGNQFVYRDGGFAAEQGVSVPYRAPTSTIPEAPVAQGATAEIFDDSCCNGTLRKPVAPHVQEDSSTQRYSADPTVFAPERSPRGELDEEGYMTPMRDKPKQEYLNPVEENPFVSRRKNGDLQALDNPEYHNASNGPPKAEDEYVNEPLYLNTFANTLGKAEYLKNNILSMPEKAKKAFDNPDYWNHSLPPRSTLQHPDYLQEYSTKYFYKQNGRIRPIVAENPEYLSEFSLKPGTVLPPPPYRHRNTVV
UniProt O75460: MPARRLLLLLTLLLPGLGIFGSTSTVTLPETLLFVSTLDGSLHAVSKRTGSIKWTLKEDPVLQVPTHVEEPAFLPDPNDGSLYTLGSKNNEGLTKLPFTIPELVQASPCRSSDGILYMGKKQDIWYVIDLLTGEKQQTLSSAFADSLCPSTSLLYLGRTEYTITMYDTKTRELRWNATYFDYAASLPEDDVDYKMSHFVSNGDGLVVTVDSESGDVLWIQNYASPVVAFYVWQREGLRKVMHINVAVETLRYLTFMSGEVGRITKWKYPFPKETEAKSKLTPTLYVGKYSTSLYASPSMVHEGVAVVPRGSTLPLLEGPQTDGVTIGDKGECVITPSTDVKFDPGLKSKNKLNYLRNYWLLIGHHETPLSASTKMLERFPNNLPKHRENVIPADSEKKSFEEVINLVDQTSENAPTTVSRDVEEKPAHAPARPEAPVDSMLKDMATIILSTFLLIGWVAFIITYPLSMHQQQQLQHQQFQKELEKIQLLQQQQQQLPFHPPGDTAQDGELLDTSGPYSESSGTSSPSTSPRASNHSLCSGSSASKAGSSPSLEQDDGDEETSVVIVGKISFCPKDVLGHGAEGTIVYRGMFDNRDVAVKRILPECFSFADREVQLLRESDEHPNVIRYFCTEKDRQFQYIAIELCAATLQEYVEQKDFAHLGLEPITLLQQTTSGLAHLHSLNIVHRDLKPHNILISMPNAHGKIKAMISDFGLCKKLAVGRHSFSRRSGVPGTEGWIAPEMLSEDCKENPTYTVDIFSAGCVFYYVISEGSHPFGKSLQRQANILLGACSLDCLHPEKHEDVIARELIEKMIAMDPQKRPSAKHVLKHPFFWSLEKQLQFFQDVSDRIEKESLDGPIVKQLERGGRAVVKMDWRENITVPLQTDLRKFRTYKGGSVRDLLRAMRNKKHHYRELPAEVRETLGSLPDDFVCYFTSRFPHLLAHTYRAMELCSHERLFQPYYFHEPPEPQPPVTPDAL
UniProt P21802, whole entry, looked up: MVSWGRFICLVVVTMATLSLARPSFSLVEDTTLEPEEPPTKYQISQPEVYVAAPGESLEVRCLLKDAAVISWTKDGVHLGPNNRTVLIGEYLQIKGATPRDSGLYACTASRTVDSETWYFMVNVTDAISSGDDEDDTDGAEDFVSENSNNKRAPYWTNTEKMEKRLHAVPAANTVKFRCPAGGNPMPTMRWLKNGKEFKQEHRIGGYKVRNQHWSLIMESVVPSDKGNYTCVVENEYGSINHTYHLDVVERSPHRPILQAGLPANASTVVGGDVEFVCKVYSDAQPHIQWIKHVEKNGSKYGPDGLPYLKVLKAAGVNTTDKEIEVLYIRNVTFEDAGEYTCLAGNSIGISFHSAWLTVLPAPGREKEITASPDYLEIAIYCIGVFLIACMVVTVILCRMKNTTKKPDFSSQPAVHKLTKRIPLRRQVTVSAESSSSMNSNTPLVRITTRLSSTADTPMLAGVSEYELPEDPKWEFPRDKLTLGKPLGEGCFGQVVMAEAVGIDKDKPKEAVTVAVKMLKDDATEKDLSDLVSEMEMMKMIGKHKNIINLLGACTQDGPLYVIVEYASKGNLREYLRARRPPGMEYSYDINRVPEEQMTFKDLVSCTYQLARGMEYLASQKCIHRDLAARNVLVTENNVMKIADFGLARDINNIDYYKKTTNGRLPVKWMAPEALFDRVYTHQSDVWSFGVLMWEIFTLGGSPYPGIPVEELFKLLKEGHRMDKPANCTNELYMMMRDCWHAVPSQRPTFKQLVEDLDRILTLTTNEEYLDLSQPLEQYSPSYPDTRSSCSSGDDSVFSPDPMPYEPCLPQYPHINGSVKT
UniProt P22607, whole entry, looked up: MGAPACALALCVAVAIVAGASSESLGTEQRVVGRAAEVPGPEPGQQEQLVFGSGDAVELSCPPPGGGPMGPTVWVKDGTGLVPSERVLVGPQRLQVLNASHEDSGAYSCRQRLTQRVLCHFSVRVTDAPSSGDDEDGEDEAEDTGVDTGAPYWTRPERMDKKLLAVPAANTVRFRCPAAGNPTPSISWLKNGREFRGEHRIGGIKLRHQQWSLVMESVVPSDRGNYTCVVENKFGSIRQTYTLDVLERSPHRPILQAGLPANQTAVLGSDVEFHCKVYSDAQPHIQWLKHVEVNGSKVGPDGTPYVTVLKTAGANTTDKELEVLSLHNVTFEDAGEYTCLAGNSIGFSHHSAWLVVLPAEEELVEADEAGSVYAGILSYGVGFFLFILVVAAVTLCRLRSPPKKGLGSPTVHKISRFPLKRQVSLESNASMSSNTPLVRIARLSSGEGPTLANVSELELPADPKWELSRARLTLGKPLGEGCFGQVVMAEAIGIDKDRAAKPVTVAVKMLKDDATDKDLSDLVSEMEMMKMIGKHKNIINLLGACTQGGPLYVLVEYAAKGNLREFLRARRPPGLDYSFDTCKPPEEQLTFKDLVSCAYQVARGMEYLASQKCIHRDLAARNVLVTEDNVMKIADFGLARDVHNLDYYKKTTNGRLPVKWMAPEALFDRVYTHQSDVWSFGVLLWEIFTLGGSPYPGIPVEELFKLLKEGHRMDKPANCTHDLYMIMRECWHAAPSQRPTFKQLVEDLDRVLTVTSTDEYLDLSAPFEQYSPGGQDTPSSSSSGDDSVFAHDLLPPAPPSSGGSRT

What was measured:
Assay in all cases: number of time points (of 5) at which kinase-Nluc abundance scored as decreased, DMSO-normalised (count); higher = more persistent destabilization
Conditions in all cases: K562; 2-18 h
CSNK1A1 = CSNK1A1 (UniProt P48729)
CSNK1D = CSNK1D (UniProt P48730)
DDR1 = DDR1 (UniProt Q08345)
DYRK1B = DYRK1B (UniProt Q9Y463)
DYRK2 = DYRK2 (UniProt Q92630)
EGFR = EGFR (UniProt P00533)
EGFR_G719S = EGFR_G719S (UniProt P00533)
EGFR_G719S_T790M = EGFR_G719S_T790M (UniProt P00533)
EGFR_L718V = EGFR_L718V (UniProt P00533)
EGFR_L858R = EGFR_L858R (UniProt P00533)
EGFR_L861Q = EGFR_L861Q (UniProt P00533)
EGFR_T790M = EGFR_T790M (UniProt P00533)
EPHA2 = EPHA2 (UniProt P29317)
ERBB3 = ERBB3 (UniProt P21860)
[1] = target: ERBB4_R711C (clone: ERBB4_mut) (UniProt Q15303)
ERN1 = ERN1 (UniProt O75460)
FGFR1 = FGFR1 (UniProt P11362)
FGFR2 = FGFR2 (UniProt P21802)
FGFR3 = FGFR3 (UniProt P22607)
FGR = FGR (UniProt P09769)

SMILES | number of time points (CSNK1A1) | number of time points (CSNK1D) | number of time points (DDR1) | number of time points (DYRK1B) | number of time points (DYRK2) | number of time points (EGFR) | number of time points (EGFR_G719S) | number of time points (EGFR_G719S_T790M) | number of time points (EGFR_L718V) | number of time points (EGFR_L858R) | number of time points (EGFR_L861Q) | number of time points (EGFR_T790M) | number of time points (EPHA2) | number of time points (ERBB3) | number of time points [1] | number of time points (ERN1) | number of time points (FGFR1) | number of time points (FGFR2) | number of time points (FGFR3) | number of time points (FGR)
Cn1ncc(NC(=O)c2nc(-c3c(F)cccc3F)sc2N)c1N1CC[C@@H](N)[C@H](F)CC1 (10 µM) | 0 | 0 | 0 | 0 | 0 | 0 | 0 | 0 | 0 | 0 | 0 | 0 | 0 | 0 | 0 | 0 | 0 | 0 | 0 | 0
CN1CCN(c2cc(-c3ccncc3)c(-c3ccc4ccccc4c3)nn2)CC1 (10 µM) | 0 | 0 | 0 | 0 | 0 | 0 | 0 | 0 | 0 | 0 | 0 | 0 | 0 | 0 | 0 | 0 | 0 | 0 | 0 | 0
COc1cc(-c2cc(OP(=O)(O)O)cc(-c3cc(OC)c(OC)c(OC)c3)c2)cc(OC)c1OC [Stafia-1] (10 µM) | 0 | 0 | 0 | 0 | 0 | 0 | 0 | 0 | 0 | 0 | 0 | 0 | 0 | 0 | 0 | 0 | 0 | 0 | 0 | 0
Cc1ccc(C)c(OCCn2cc(C(=O)O)c3ccccc32)c1 (10 µM) | 0 | 0 | 0 | 0 | 0 | 0 | 0 | 0 | 0 | 0 | 0 | 0 | 0 | 0 | 0 | 0 | 0 | 0 | 0 | 0
COc1cc2c(cc1O)C[C@H]1c3cc(O)c(OC)cc3CC[N@@+]1(C)C2 [Phellodendrine] (10 µM) | 0 | 0 | 0 | 0 | 0 | 0 | 0 | 0 | 0 | 0 | 0 | 0 | 0 | 0 | 0 | 0 | 0 | 0 | 0 | 0
O=C(c1cccc(Cl)c1F)N1CCN(Cc2cccc(Nc3nccs3)n2)CC1 (2.5 µM) | 0 | 0 | 0 | 0 | 0 | 0 | 0 | 0 | 0 | 0 | 0 | 0 | 0 | 0 | 1 | 0 | 0 | 1 | 0 | 0
COc1cc2ncnc(Nc3cccc(I)c3)c2cc1OC (2.5 µM) | 0 | 0 | 0 | 0 | 0 | 0 | 0 | 0 | 0 | 0 | 0 | 0 | 0 | 0 | 0 | 0 | 0 | 0 | 0 | 0
COCCOc1ccc2c(c1)ncn2-c1ccc2cccc(N3CCC(N)CC3)c2n1 (10 µM) | 1 | 0 | 3 | 0 | 4 | 0 | 0 | 2 | 0 | 2 | 3 | 0 | 2 | 3 | 4 | 0 | 3 | 3 | 0 | 0
Cc1cccc(-c2[nH]ncc2-c2ccnc3ccccc23)n1 (10 µM) | 0 | 0 | 0 | 0 | 0 | 0 | 0 | 0 | 0 | 0 | 0 | 0 | 0 | 0 | 0 | 0 | 0 | 0 | 0 | 0
CC(C)CCN1c2nc(Nc3cc(F)c(O)c(F)c3)ncc2N(C)C(=O)C1C (stereo not given) (2.5 µM) | 0 | 0 | 0 | 0 | 0 | 0 | 0 | 0 | 0 | 0 | 0 | 0 | 0 | 0 | 0 | 0 | 0 | 0 | 0 | 0
O=C(Nc1cccc(-c2nc(-c3ccc(NC(=O)c4cccnc4)cc3Cl)no2)c1)Nc1ccc(NC(=O)C2CC2)c(C(F)(F)F)c1 (2.5 µM) | 0 | 0 | 0 | 0 | 0 | 0 | 0 | 0 | 0 | 0 | 0 | 0 | 0 | 0 | 0 | 0 | 0 | 0 | 0 | 0
CNC(=O)CNc1cnc2ccc(-c3ccc(OC)c(OC)c3)cc2n1 (10 µM) | 0 | 0 | 0 | 0 | 0 | 0 | 0 | 0 | 0 | 0 | 0 | 0 | 0 | 0 | 0 | 0 | 0 | 0 | 0 | 0
COC(=O)Nc1ccc(-c2nc(N3CCOCC3)c3cnn(C4CCN(Cc5cccnc5)CC4)c3n2)cc1 (10 µM) | 0 | 0 | 0 | 0 | 0 | 0 | 0 | 0 | 0 | 0 | 0 | 0 | 0 | 0 | 0 | 0 | 0 | 0 | 0 | 0
N#Cc1ccc(-c2cnc3[nH]cc(NC(=O)c4cccnc4)c3c2)cc1 (10 µM) | 0 | 0 | 0 | 0 | 0 | 0 | 0 | 0 | 0 | 0 | 0 | 0 | 0 | 0 | 0 | 0 | 0 | 0 | 0 | 0
Cc1cnc(NC(=O)c2cc(Oc3cnc(C(=O)N(C)C)nc3)c3cc(C)oc3c2)cn1 (10 µM) | 0 | 0 | 0 | 0 | 0 | 0 | 0 | 0 | 0 | 0 | 0 | 0 | 0 | 0 | 0 | 0 | 0 | 0 | 0 | 0
O=c1cc(-c2ccccc2)oc2cc(O[C@@H]3O[C@H](CO[C@@H]4O[C@H](CO)[C@@H](O)[C@H](O)[C@H]4O)[C@@H](O)[C@H](O)[C@H]3O)c(O)c(O)c12 [Oroxin B] (10 µM) | 0 | 0 | 0 | 0 | 0 | 0 | 0 | 0 | 0 | 0 | 0 | 0 | 0 | 0 | 0 | 0 | 0 | 0 | 0 | 0
N#Cc1ccc2ncnc(NCCc3ccccc3)c2c1 [Senexin A] (10 µM) | 0 | 0 | 0 | 0 | 0 | 0 | 0 | 0 | 0 | 0 | 0 | 0 | 0 | 0 | 0 | 0 | 0 | 0 | 0 | 0
CNC(=O)c1cc2c(Oc3ccc(NC(=O)C4(C(=O)Nc5ccc(F)cc5)CC4)cc3)ccnc2cc1OC (2.5 µM) | 1 | 2 | 1 | 1 | 4 | 1 | 1 | 1 | 2 | 2 | 2 | 1 | 0 | 3 | 2 | 2 | 2 | 3 | 1 | 0
CCN(CC)CCCC(C)Nc1nc(C)cc(Nc2ccc3nc(C)cc(N)c3c2)n1 (stereo not given) (10 µM) | 0 | 0 | 0 | 0 | 0 | 0 | 0 | 0 | 0 | 0 | 0 | 0 | 0 | 0 | 0 | 0 | 0 | 0 | 0 | 0
NCC1CCC(CNc2nc(NCc3ccccc3OC(F)(F)F)ncc2[N+](=O)[O-])CC1 (stereo not given) [PKC-theta inhibitor] (10 µM) | 0 | 0 | 4 | 0 | 1 | 2 | 4 | 4 | 3 | 4 | 4 | 2 | 5 | 5 | 5 | 4 | 5 | 4 | 4 | 0
C=CC(=O)N1CC[C@@H](Oc2nc(Nc3ccc(N4CCC(N5CCN(C)CC5)CC4)cc3)c(C(N)=O)nc2CC)C1 [Naquotinib (mesylate)] (2.5 µM) | 0 | 0 | 0 | 0 | 0 | 0 | 0 | 0 | 0 | 0 | 0 | 0 | 0 | 0 | 0 | 0 | 0 | 0 | 0 | 0
CCNC(=O)C#Cc1ccc2c(C(=Nc3ccc(CN(C)C)cc3)c3ccccc3)c(O)[nH]c2c1 (2.5 µM) | 0 | 0 | 0 | 0 | 0 | 0 | 0 | 0 | 0 | 0 | 0 | 0 | 0 | 0 | 0 | 0 | 0 | 0 | 0 | 0
Cn1c2cc([S+](C)[O-])sc2c2cnn(Cc3cccc(N)c3)c(=O)c21 (stereo not given) (2.5 µM) | 0 | 0 | 0 | 0 | 0 | 0 | 0 | 0 | 0 | 0 | 0 | 0 | 0 | 0 | 0 | 0 | 0 | 0 | 0 | 0
O=C(Nc1cc(Cl)cc2c1[nH]c1cnccc12)c1cccnc1 (10 µM) | 0 | 0 | 0 | 0 | 0 | 0 | 0 | 0 | 0 | 0 | 0 | 0 | 0 | 0 | 0 | 0 | 0 | 0 | 0 | 0

Entries of single compounds as entered above. Values in the order: number of time points (CSNK1A1)	number of time points (CSNK1D)	number of time points (DDR1)	number of time points (DYRK1B)	number of time points (DYRK2)	number of time points (EGFR)	number of time points (EGFR_G719S)	number of time points (EGFR_G719S_T790M)	number of time points (EGFR_L718V)	number of time points (EGFR_L858R)	number of time points (EGFR_L861Q)	number of time points (EGFR_T790M)	number of time points (EPHA2)	number of time points (ERBB3)	number of time points [1]	number of time points (ERN1)	number of time points (FGFR1)	number of time points (FGFR2)	number of time points (FGFR3)	number of time points (FGR)
Cc1cnc(NC(=O)c2cc(Oc3cnc(C(=O)N(C)C)nc3)c3cc(C)oc3c2)cn1 (10 µM) is listed as 0	0	0	0	0	0	0	0	0	0	0	0	0	0	0	0	0	0	0	0
Cn1c2cc([S+](C)[O-])sc2c2cnn(Cc3cccc(N)c3)c(=O)c21 (stereo not given) (2.5 µM) is listed as 0	0	0	0	0	0	0	0	0	0	0	0	0	0	0	0	0	0	0	0
